Results deposited as PubChem BioAssay AID652259 (Drosophila RNAi Screening Center, 2013)
In all, the deposit lists about 22,000 reagents; this is a random part of those that have a named target and a result. Of all reagents, 233 (1.1%) were called active. 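Light values are raw, unnormalised plate reads; the ratio scores behind the reporter calls were not deposited.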 The record does not give: the amount of reagent, the time to read-out, the dose of the treatment.

Purpose: 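Identify new Wingless signalling regulators in fly cells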 (primary screen)
System: Drosophila clone 8 imaginal disc epithelial cells
Reagents: long dsRNA against Drosophila genes
Conditions: pathway stimulated by co-transfected Wingless expression plasmid
Read-out: 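Firefly luciferase from a tcf-site Wingless reporter, measured alongside co-transfected Renilla luciferase that tracks transfection; pathway stimulated by a Wingless plasmid; the firefly-to-Renilla ratio is not deposited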
Reading the numbers: firefly reporter light: higher = more Wg reporter light, before normalisation; Renilla control light: higher = more transfected or surviving cells
Active means: 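a knock-down is a candidate when at least two out of four statistical tests show it departing from its plate mean; one test alone signals a weak candidate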
Calls: active = candidate regulator (raises or lowers reporter); inactive = not a candidate

{"predicted target": "CG6567", "DRSC id": "DRSC16066", "firefly reporter light, replicate 1": 11424, "Renilla control light, replicate 1": 2692, "Outcome": "inactive"}
{"predicted target": "Mfe2 (peroxisomal Multifunctional enzyme type 2)", "DRSC id": "DRSC19869", "firefly reporter light, replicate 1": 3243, "firefly reporter light, replicate 2": 8832, "Renilla control light, replicate 1": 1209, "Renilla control light, replicate 2": 2880, "Outcome": "inactive"}
{"predicted target": "CG8562", "DRSC id": "DRSC10995", "firefly reporter light, replicate 1": 1233, "firefly reporter light, replicate 2": 7001, "Renilla control light, replicate 1": 875, "Renilla control light, replicate 2": 2945, "Outcome": "inactive"}
{"predicted target": "AstCC (Allatostatin double C)", "DRSC id": "DRSC02404", "firefly reporter light, replicate 1": 2225, "firefly reporter light, replicate 2": 7192, "Renilla control light, replicate 1": 867, "Renilla control light, replicate 2": 3986, "Outcome": "inactive"}
{"predicted target": "CR31427 (pseudo)", "DRSC id": "DRSC22675", "firefly reporter light, replicate 1": 8.65e5, "firefly reporter light, replicate 2": 8.59e5, "Renilla control light, replicate 1": 4.08e5, "Renilla control light, replicate 2": 93749, "Outcome": "inactive"}
{"predicted target": "CG15878", "DRSC id": "DRSC08486", "firefly reporter light, replicate 1": 6332, "Renilla control light, replicate 1": 2642, "Outcome": "inactive"}
{"predicted target": "Dbp45A (DEAD box protein 45A)", "DRSC id": "DRSC07395", "firefly reporter light, replicate 1": 9272, "Renilla control light, replicate 1": 2785, "Outcome": "inactive"}
{"predicted target": "Obp50a (Odorant-binding protein 50a)", "DRSC id": "DRSC22152", "firefly reporter light, replicate 1": 7.62e5, "firefly reporter light, replicate 2": 7.96e5, "Renilla control light, replicate 1": 3.43e5, "Renilla control light, replicate 2": 3.60e5, "Outcome": "inactive"}
{"predicted target": "CG14352", "DRSC id": "DRSC00382", "firefly reporter light, replicate 1": 2416, "firefly reporter light, replicate 2": 5148, "Renilla control light, replicate 1": 820, "Renilla control light, replicate 2": 1728, "Outcome": "inactive"}
{"predicted target": "Cpr67Fa2 (Cuticular protein 67Fa2)", "DRSC id": "DRSC10315", "firefly reporter light, replicate 1": 6982, "Renilla control light, replicate 1": 3216, "Outcome": "inactive"}
{"predicted target": "CG1688", "DRSC id": "DRSC05934", "firefly reporter light, replicate 1": 8034, "Renilla control light, replicate 1": 1675, "Outcome": "inactive"}
{"predicted target": "CG8245", "DRSC id": "DRSC04901", "firefly reporter light, replicate 1": 3684, "firefly reporter light, replicate 2": 7868, "Renilla control light, replicate 1": 837, "Renilla control light, replicate 2": 2957, "Outcome": "inactive"}

An excerpt from the list above, as a working copy:
{"predicted target": "CG15878", "DRSC id": "DRSC08486", "firefly reporter light, replicate 1": 6332, "Renilla control light, replicate 1": 2642, "Outcome": "inactive"}
{"predicted target": "Dbp45A (DEAD box protein 45A)", "DRSC id": "DRSC07395", "firefly reporter light, replicate 1": 9272, "Renilla control light, replicate 1": 2785, "Outcome": "inactive"}
